Measurements from “University of Dundee, Small-Polar-MMV Screening Library” (2021), ChEMBL document CHEMBL3988442.

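Whole-cell assay for inhibitors of Mycobacterium tuberculosis growth, labelled Cornell in the record; the read-out is not stated. The concentration is filed as 10 mM, unlikely as a test dose, so the dose is not known. The record gives no direction; compounds strong in two other growth screens of this library score well above the rest, so higher reads as stronger inhibition. Size under these conditions: about 53,000 compounds, about 900 of them at 50% or above in at least one test.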

Values are the deposited “Percent Effect”, in %.
The record does not define 0% and 100%; most values in the screen are far below 50% and negative numbers occur (in some assays of this library far below -100).
The compounds are a random part of those screened.

CN(Cc1cccnc1)CC1CN(C(N)=O)Cc2nccn2C1 (centres undefined) gave 19%.
COCCN(Cc1nccs1)C(=O)c1c(C)cc(C)[nH]c1=O gave -30.2%.
Cc1cc(NC(=O)CCc2ccsc2)n(C)n1 gave -15.65%.
Cn1ncc2c(N3CCCC(C)(O)C3)nc(C(C)(C)C)nc21 (centres undefined) gave 12.15%.
CCc1cc(CNC(=O)N2Cc3ccccc3N(C)CC2C)on1 (centres undefined) gave 10.07%.
Cc1nnc(CNC(=O)C2CSCCC(=O)N2)o1 (centres undefined) gave -17.55%.
Cc1cccnc1C(NC(=O)CNC(=O)c1ccoc1C)C(C)C (centres undefined) gave -37.63%.
COc1ccc(CNC(=O)NCC2CCOC2)c(C(F)(F)F)c1 (centres undefined) gave 25.25%.
O=C(O)C(F)(F)F.[H][C@]12CCN(C(=O)Cc3cccs3)C[C@@]1([H])OCCN(C(C)C)C2 gave 0.7236%.
Cc1cc(C)n(CC2CCCN2Cc2cscn2)n1 (centres undefined) gave -24.46%.
CC(C)C(NC(N)=O)C(=O)N1CCN(c2ccccc2Cl)C(=O)C1 (centres undefined) gave 14.36%.
COc1ccc2oc(-c3cn(C)nc3C)c(O)c(=O)c2c1 gave 10.58%.
O=C(c1cc[nH]n1)N1CCCC(c2cc(C(F)(F)F)[nH]n2)C1 (centres undefined) gave -21.29%.
c1cc(-c2nnc([C@H]3CCN(C4CCOCC4)C3)o2)ccn1 gave -28.57%.
Cc1cnc(NCCCN2CCc3ccccc32)nc1 gave 12.01%.
Cc1cc(C)cc(CN2CCCC2c2noc(C)n2)c1 (centres undefined) gave 34.88%.
C[C@@H]1CN2C[C@H](O)CC2CN1Cc1ccc2nccnc2c1 (some centres undefined) gave -11.04%.
CCN(Cc1cccc(NC(=O)COC)c1)C(C)=O gave -9.642%.
Cc1cc(C(N)=O)c2c(Br)cccc2n1 gave -15.91%.
CN(CCc1noc(C2CC2)n1)C(=O)C1(N2CCCC2)CCCC1 gave 31.49%.
CCOc1ccc(C(C)Nc2ncnc3c2CCNC3)cc1OCC (centres undefined) gave 51.31%.
COc1cc(-c2nc3c([nH]2)CCCNC3=O)cc(OC)c1OC gave 22.3%.
Cc1cccc(NC(=O)c2ccc(-n3cncn3)nn2)n1 gave -1.795%.
Cc1nc(-c2ccncc2)ncc1C(C)NC(=O)CN1CCOC1=O (centres undefined) gave -51.46%.
CCCc1n[nH]c(=O)n1Cc1ccccc1F gave 5.585%.
Cn1ccnc1CN1CCC2(CC1)COCCN(S(C)(=O)=O)C2.O=C(O)C(F)(F)F gave 13.91%.
O=C(NS(=O)(=O)c1ccc(F)cc1)C1CCOc2ccccc21 (centres undefined) gave 12.06%.
CN(C)CC1CN(CCOc2cccc(C#N)c2)CCO1 (centres undefined) gave 18.26%.
O=C(Nc1ccc(-c2cnc(NCCO)nc2)cc1)[C@@H]1CCCCN1 gave 13.92%.
Cc1c(NCc2ccccc2C#N)cccc1-n1cnnn1 gave -10.25%.
[H][C@]12CCN(C(=O)COC)CC[C@@]1([H])S(=O)(=O)N(Cc1cccnc1)C2 gave -0.7043%.
O=C1CCCN1C1CCCN(CCOc2ccc(F)cc2)C1 (centres undefined) gave -4.261%.
CN(C)C(=O)CN1CCC2(CCN(CC3CC3)CC2)C1=O.O=C(O)C(F)(F)F gave -15.59%.
[H][C@]12CC[C@](C(=O)N3CCC(n4cc(CO)nn4)CC3)(C1)C(=C)C2(C)C gave 16.64%.
CN(Cc1nnc(C2CC2)o1)Cc1ccccc1-c1ccccc1 gave 24.56%.
CN(Cc1ncc(-c2ccccc2)o1)C1CCCN(c2cccnn2)C1 (centres undefined) gave 31.38%.
O=C(c1cc[nH]n1)N1CCCC1c1cc(Nc2ccccn2)n[nH]1 (centres undefined) gave 16.44%.
Cc1ccsc1CN(C)C(=O)c1ccc(N2CCOCC2)c(F)c1 gave 2.38%.
CS(=O)(=O)NCC1CCCCN1Cc1cccc(C#N)c1 (centres undefined) gave 3.63%.
COc1cc(C(C)=O)ccc1OCC(=O)N(C)Cc1cnn(C)c1 gave 14.79%.
O=C(c1cc(Cl)c[nH]1)N1CCCC(c2cc(C(F)(F)F)[nH]n2)C1 (centres undefined) gave 3.38%.
O=C(N1CCCC1)N1CCC2(CC(=O)N(c3ccc4c(c3)OCO4)C2)C1 (centres undefined) gave 3.539%.
CC(=O)NCC(=O)N1CCc2nc(C)nc(C)c2CC1 gave 30.33%.
CS(=O)(=O)N1C[C@@H](O)[C@H](N2CCN(c3ccccc3)CC2)C1 gave -22.88%.
CN(Cc1noc2c1CCCC2)C(=O)Cn1c(=O)cnc2ccccc21 gave 8.439%.
CCCC(=O)N1CCCC(C(=O)c2cnn(-c3ccc(F)cc3)c2N)C1 (centres undefined) gave 5.503%.
CC(C)OCCC(=O)Nc1cccc(N2CCN(CC3CC3)CC2)c1 gave 13.61%.
Cc1nccn1CC1CCCN(Cc2ccc(-c3cccnc3)cc2)C1 (centres undefined) gave 31.89%.
CCOc1ccccc1CC(=O)N1CCCC(c2ncc[nH]2)C1 (centres undefined) gave 9.948%.

Repeated from the top, 4 entries:

| Compound | Percent Effect |
|---|---|
| `CN(Cc1cccnc1)CC1CN(C(N)=O)Cc2nccn2C1` (centres undefined) | 19 |
| `COCCN(Cc1nccs1)C(=O)c1c(C)cc(C)[nH]c1=O` | -30.2 |
| `Cc1cc(NC(=O)CCc2ccsc2)n(C)n1` | -15.65 |
| `Cn1ncc2c(N3CCCC(C)(O)C3)nc(C(C)(C)C)nc21` (centres undefined) | 12.15 |